± gives the standard deviation of the averaged measurements. This is a selection; strong and weak results do not stand in their true shares.
Legend:
Experiment in all cases: NP40-soluble protein abundance relative to vehicle (solubility fold change) (ratio); higher = more soluble protein in presence of ATP
CDS2 = target: T1, CDS2 (UniProt O95674)
T1 sequence (whole entry): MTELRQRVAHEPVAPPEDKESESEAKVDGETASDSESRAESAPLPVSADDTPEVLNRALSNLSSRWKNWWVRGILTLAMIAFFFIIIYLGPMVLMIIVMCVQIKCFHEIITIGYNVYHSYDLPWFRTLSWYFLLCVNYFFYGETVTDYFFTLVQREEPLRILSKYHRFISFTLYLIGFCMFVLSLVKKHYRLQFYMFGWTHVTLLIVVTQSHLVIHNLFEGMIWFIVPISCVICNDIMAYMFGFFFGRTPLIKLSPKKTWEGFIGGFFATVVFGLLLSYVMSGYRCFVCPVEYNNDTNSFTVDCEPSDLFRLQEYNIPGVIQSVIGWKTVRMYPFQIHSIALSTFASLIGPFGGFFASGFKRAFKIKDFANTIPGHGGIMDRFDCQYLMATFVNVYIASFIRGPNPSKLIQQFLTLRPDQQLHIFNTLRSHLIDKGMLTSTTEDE
Method in brief: (§1)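 Crude Jurkat lysate, prepared by Dounce homogenisation, was exposed to eight concentrations from 0.1 to 10 mM for 10 min at room temperature and then 3 min at 37 °C. Solubilisation used 0.8% NP40 with benzonase for 60 min at 4 °C, followed by ultracentrifugation and TMT labelling of the supernatant for LC-MS/MS. After vsn normalisation of intensities, each value is the fold change against the detergent-processed vehicle within each replicate, across three independent experiments.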

DOK2 = target: T2, DOK2 (UniProt O60496)
T2 sequence (whole entry): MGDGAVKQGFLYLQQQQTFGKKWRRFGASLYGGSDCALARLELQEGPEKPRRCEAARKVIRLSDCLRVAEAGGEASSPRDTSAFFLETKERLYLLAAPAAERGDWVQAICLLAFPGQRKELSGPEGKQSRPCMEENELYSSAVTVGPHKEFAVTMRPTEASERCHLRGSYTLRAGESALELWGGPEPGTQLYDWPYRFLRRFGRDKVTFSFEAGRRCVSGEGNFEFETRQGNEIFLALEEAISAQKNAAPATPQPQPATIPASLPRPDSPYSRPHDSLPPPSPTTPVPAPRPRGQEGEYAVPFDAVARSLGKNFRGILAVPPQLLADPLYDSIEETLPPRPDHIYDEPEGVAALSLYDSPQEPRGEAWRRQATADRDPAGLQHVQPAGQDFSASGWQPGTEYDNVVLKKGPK
Method in brief: as §1

EDF1 = target: T3, EDF1 (UniProt O60869)
T3 sequence (whole entry): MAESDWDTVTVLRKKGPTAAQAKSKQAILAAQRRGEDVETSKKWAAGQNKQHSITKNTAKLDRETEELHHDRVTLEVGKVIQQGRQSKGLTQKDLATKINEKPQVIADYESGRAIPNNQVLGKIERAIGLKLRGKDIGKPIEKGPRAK
Method in brief: as §1

MFN2 = target: T4, MFN2 (UniProt O95140)
T4 sequence (whole entry): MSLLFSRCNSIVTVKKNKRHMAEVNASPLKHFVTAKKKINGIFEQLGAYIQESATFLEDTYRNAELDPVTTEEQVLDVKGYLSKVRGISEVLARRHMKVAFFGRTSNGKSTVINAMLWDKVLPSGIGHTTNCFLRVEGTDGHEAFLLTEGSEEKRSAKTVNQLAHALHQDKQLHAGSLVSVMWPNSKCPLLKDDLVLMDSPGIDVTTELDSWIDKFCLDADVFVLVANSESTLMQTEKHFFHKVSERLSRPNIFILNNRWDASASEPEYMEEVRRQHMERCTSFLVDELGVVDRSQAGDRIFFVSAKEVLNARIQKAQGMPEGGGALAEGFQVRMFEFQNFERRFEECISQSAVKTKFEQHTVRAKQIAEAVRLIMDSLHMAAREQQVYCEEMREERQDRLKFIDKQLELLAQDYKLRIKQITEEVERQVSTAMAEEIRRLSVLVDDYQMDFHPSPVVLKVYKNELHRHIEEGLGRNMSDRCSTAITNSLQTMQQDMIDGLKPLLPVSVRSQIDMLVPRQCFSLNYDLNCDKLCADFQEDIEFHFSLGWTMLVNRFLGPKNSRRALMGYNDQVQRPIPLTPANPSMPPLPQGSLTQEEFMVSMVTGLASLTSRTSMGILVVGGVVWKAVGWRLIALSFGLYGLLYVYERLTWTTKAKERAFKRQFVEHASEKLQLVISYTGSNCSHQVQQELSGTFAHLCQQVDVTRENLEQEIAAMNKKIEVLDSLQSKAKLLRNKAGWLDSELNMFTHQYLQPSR
Method in brief: as §1

PGLS = target: T5, PGLS (UniProt O95336)
T5 sequence (whole entry): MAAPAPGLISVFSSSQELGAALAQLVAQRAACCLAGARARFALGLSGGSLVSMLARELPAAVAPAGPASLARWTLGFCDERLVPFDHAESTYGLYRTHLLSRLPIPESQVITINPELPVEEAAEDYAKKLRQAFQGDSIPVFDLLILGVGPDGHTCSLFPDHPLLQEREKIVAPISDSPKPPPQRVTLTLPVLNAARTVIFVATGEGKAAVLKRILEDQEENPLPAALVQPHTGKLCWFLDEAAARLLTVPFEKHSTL
Method in brief: as §1

Question: What does the source list for `Nc1ncnc2c1ncn2[C@@H]1O[C@H](COP(=O)(O)OP(=O)(O)OP(=O)(O)O)[C@@H](O)[C@H]1O` [adenosine triphosphate]?
Answer: NP40-soluble protein abundance (CDS2; concentration: 1mM): 0.878 ± 0.029; NP40-soluble protein abundance (CDS2; concentration: 2mM): 0.891 ± 0.063; NP40-soluble protein abundance (CDS2; concentration: 4mM): 0.881 ± 0.033; NP40-soluble protein abundance (CDS2; concentration: 6mM): 0.858 ± 0.043; NP40-soluble protein abundance (CDS2; concentration: 8mM): 0.863 ± 0.041; NP40-soluble protein abundance (CDS2; concentration: 10mM): 0.886 ± 0.05; NP40-soluble protein abundance (DOK2; concentration: 1mM): 0.983 ± 0.013; NP40-soluble protein abundance (DOK2; concentration: 2mM): 0.987 ± 0.038; NP40-soluble protein abundance (DOK2; concentration: 4mM): 0.9766 ± 0.0063; NP40-soluble protein abundance (DOK2; concentration: 6mM): 0.938 ± 0.045; NP40-soluble protein abundance (DOK2; concentration: 8mM): 0.967 ± 0.011; NP40-soluble protein abundance (DOK2; concentration: 10mM): 0.964 ± 0.027; NP40-soluble protein abundance (EDF1; concentration: 1mM): 0.996 ± 0.11; NP40-soluble protein abundance (EDF1; concentration: 2mM): 1.01 ± 0.064; NP40-soluble protein abundance (EDF1; concentration: 4mM): 1 ± 0.043; NP40-soluble protein abundance (EDF1; concentration: 6mM): 1.11 ± 0.11; NP40-soluble protein abundance (EDF1; concentration: 8mM): 1.02 ± 0.022; NP40-soluble protein abundance (EDF1; concentration: 10mM): 0.99 ± 0.08; NP40-soluble protein abundance (MFN2; concentration: 1mM): 1.06 ± 0.021; NP40-soluble protein abundance (MFN2; concentration: 2mM): 1.05 ± 0.033; NP40-soluble protein abundance (MFN2; concentration: 4mM): 1.05 ± 0.056; NP40-soluble protein abundance (MFN2; concentration: 6mM): 0.994 ± 0.083; NP40-soluble protein abundance (MFN2; concentration: 8mM): 1.05 ± 0.049; NP40-soluble protein abundance (MFN2; concentration: 10mM): 1.02 ± 0.013; NP40-soluble protein abundance (PGLS; concentration: 1mM): 1 ± 0.022; NP40-soluble protein abundance (PGLS; concentration: 2mM): 0.998 ± 0.011; NP40-soluble protein abundance (PGLS; concentration: 4mM): 0.9917 ± 0.0014
